The values that follow come from patent US20230236206A1, “PREDICTING A SEPSIS CONDITION” (PHARM-ANALYT LABOR GMBH, priority 2020, published 2023).

This series in a line: BM1 level in samples of calves, lama, alpaca, goat, and beef.

`C[C@@H](O)[C@H](NC(=O)Nc1ncnc2c1ncn2[C@@H]1O[C@H](CO)C(O)C1O)C(=O)O` (stereo partly drawn) [BM1, N6-Carbamoylthreonyl-D-adenosine] returned a Concentration levels (some samples of calves, lama, alpaca, goat, and beef) of 10 to 30 ng/mL. Further, the “Concentration levels in septic calves” value (some septic calves) was in the range of 40 to 80 ng/mL.
